Data as given in PubChem BioAssay AID493246 (Drosophila RNAi Screening Center, 2011)
Purpose: 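Genes fly cells need to grow and stay alive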 (primary screen). Cells: Drosophila Kc and S2R+ cells. Reagent: long dsRNA against Drosophila genes. Measured: 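Cell number per well after knock-down, printed as raw plate values; calls were based on per-plate z-scores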. Direction: Kc cell number and S2R+ cell number: higher = more cells remaining. Active means: 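Active when the per-plate z-score of cell number is 3 or more in the direction of fewer cells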.
The deposit covers about 21,000 reagents; below is a random part of those with a known target gene and a result. Of all reagents, 429 (2%) are marked active. 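Values are raw and not normalised between plates; calls rest on per-plate z-scores that were not deposited.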 A number with no mark means an inactive call. The numbers tell different reagents against one gene apart. A plus sign joins genes that one reagent is predicted to hit. Reagent sequences are not shown. The record does not give: the amount of reagent, the time to read-out.

no.	gene knocked down	reagent no.	Kc cell number, rep 1	Kc cell number, rep 2	S2R+ cell number, rep 1	S2R+ cell number, rep 2
1	CG4611	1	1.28e6	1.38e6	1.16e6	1.15e6
2	CG13295	1	1.64e6	1.68e6	1.20e6	1.30e6
3	CG13380 + CG4174	1	1.55e6	1.53e6	1.29e6	1.30e6
4	CG13380 + CG4174	2	1.35e6	1.52e6	1.30e6	1.37e6
5	CG14537	1	1.58e6	1.53e6	1.22e6	1.34e6
6	eIF2A	1	1.59e6	1.56e6	1.37e6	1.31e6
7	CG42699	1	5.42e5		8.83e5	
8	CG42699	2	1.56e6	1.49e6	1.08e6	1.17e6
9	CG12674	1	1.43e6	1.51e6	1.00e6	1.15e6
10	ZnT77C	1	1.41e6	1.44e6	1.24e6	1.29e6
11	ZnT77C	2	1.43e6	1.51e6	1.25e6	1.32e6
12	RhoGAPp190	1	1.66e6	1.67e6	1.06e6	1.17e6
13	RhoGAPp190	2	1.47e6	1.53e6	1.03e6	1.18e6
14	Sytbeta	1	1.32e6	1.44e6	1.25e6	1.39e6
15	Sytbeta	2	1.39e6	1.64e6	1.40e6	1.50e6
16	CG12432 (retired record)	1	1.52e6	1.49e6	1.07e6	1.16e6
17	Nfs1	1	1.43e6	1.43e6	1.12e6	1.19e6
18	tna	1	1.40e6	1.54e6	1.13e6	1.29e6
19	tna	2	1.64e6	1.66e6	1.21e6	1.38e6
20	mRpS25	1	1.69e6	1.76e6	1.04e6	1.27e6
21	CG13334	1	1.47e6	1.51e6	1.20e6	1.34e6
22	gammaSnap1	1	1.36e6	1.39e6	1.09e6	1.16e6
23	CG1722	1	1.55e6	1.54e6	1.17e6	1.23e6
24	CG18508	1	1.50e6	1.49e6	1.03e6	1.18e6
25	ball	1	1.38e6	1.39e6	8.17e5	9.38e5
26	RnrS	1	8.89e5	9.51e5	6.23e5	7.35e5
27	lola	1	1.43e6	1.35e6	7.97e5	9.80e5
28	lola	2	1.62e6	1.61e6	1.04e6	1.24e6
29	lola	3	1.61e6	1.53e6	9.97e5	1.19e6
30	lola	4	1.44e6	1.42e6	7.94e5	9.79e5
31	lola	5	1.50e6	1.50e6	9.69e5	1.16e6
32	lola	6	1.42e6	1.45e6	1.06e6	1.19e6
33	lola	7	1.71e6	1.62e6	1.25e6	1.29e6
34	lola	8	1.32e6	1.44e6	1.12e6	1.18e6
35	lola	9	1.91e6	1.98e6	1.41e6	1.61e6
36	lola	10	1.05e6 (active)	1.20e6	7.04e5	8.38e5
37	lola	11	1.41e6	1.44e6	1.16e6	1.24e6
38	lola	12	1.68e6	1.76e6	1.08e6	1.24e6
39	CG18428	1	1.55e6	1.69e6	9.95e5	1.11e6
40	CG2875	1	5.37e5		8.35e5	
